Assay results from PMC10804810.
No constants are given. Whether binding was seen depends on the method and setting. Some binding calls cover weakened binding; strength is not graded here. Sequences can lack the tags named with a protein.

Target: T1, HEMK2 protein methyltransferase (murine, His-tagged) (murine) (UniProt Q6SKR2)
T1 sequence: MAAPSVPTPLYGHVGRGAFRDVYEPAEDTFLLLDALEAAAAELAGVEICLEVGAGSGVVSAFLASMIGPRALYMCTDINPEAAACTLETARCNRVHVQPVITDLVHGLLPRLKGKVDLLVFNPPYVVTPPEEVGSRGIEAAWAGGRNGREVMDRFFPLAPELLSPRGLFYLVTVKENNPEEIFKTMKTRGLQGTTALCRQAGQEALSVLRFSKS
Assay: co-purification (Ni-NTA affinity chromatography); His-tagged HEMK2 and untagged TRMT112 co-expressed in E. coli; lysate loaded on Ni-NTA agarose, washed in 30 mM KPI, 500 mM KCl, 20 mM imidazole, eluted with 220 mM imidazole; Coomassie stained SDS gel

binding: binds
B1: TRMT112 (untagged complex partner of HEMK2) (protein, UniProt Q9DCG9 1-125)
chain: MKLLTHNLLSSHVRGVGTRGFPLRLQATEVRINPVEFNPEFVARMIPKVEWAALVQAADTLNLAEVPKEPTEGYEHDETFLRKMHHVLLEVDVLEGTLQCPESGRLFPISRGIPNMLLNDEETET
